{
  "source": "patent US6884600",
  "binders": {"B1": {"name": "GST-M21 (protein, not shown: a dimerising Fc or GST; small tags and cut ends)", "chain": "MSSLFTRSKEYTRSRKSQSDSPPSSPSPIAKTLRHERLSRLEAATTPATSDSYSDRASSRSSAYSRRENRLAALSSRAEEESNRDYKKLYESALSENQKLKSKLQEAQLELADIKSKLEKAAQQKHEKTSDRSSMLEMEKREKRALERKLSEMEEEMKILTELKSDNQRLKDENGALIRVISKLSK"}},
  "biological_target": "T1, M110-(R714-I1004), C-terminal 291 residues of the chicken gizzard M110 subunit (chicken) (UniProt Q90623)",
  "T1 sequence": "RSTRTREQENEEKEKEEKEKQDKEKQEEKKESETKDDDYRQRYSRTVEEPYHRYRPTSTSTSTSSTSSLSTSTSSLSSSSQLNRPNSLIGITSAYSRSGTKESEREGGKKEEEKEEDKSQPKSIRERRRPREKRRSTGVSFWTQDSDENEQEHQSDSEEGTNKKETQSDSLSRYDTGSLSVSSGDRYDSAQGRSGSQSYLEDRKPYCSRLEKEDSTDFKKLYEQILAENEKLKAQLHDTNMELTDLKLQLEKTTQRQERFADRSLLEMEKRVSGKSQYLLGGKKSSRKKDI",
  "assay": "pull-down on glutathione-Sepharose",
  "note": "No constants are given. Whether binding was seen depends on the method and setting. In cells and extracts the contact can be indirect. Some entries that bind do so weakly or less than the wild type. Where a sequence is shown, tags or fusion partners need not be part of it.",
  "data": [
    {"binder": "B1", "values": [
      {"measurement": "binding", "value": "binds"}
    ]}
  ]
}
